From paper PMC11499264, “RNA m5C oxidation by TET2 regulates chromatin state and leukaemogenesis”
Weaker means in comparison with the reference protein, sequence or condition of that experiment. Where a protein sequence is shown, tags need not be part of it.

Target: T1, MBD6 MBD domain-MBP-His (Homo sapiens) (UniProt Q96DN6)
T1 sequence (looked up): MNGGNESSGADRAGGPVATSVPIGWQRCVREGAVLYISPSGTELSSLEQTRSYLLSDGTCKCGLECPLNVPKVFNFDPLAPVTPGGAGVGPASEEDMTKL
Assay: EMSA
Details: 0-100 uM protein, recombinant protein, residues 1-100, protein details: C-terminal MBP-6xHis, label: 5' 6-FAM, single-stranded DNA

Row | Sequence | binding result | binding result (5-hydroxymethyl-dC at positions 7, 19, 31)
1 | TATGACCTGCGGTATGACCTGCGGTATGACCTGCGG [p1-C (ss)] | binds more weakly | 
2 | TATGACCTGCGGTATGACCTGCGGTATGACCTGCGG [p1-hm5C (ss)] |  | binds more weakly
